Reference: publication doi:10.1101/2020.02.07.938530
No constants are given. Whether binding was seen depends on the method and setting. In cells and extracts the contact can be indirect. Some entries that bind do so weakly or less than the wild type. For some of these results: Where a sequence is shown, tags or fusion partners need not be part of it. Values belong to the molecule of their own block, whether it stands above or below them.

Protein sequences, listed by entry. Tags and fused reporters are not part of them.
UniProt Q9UQE7: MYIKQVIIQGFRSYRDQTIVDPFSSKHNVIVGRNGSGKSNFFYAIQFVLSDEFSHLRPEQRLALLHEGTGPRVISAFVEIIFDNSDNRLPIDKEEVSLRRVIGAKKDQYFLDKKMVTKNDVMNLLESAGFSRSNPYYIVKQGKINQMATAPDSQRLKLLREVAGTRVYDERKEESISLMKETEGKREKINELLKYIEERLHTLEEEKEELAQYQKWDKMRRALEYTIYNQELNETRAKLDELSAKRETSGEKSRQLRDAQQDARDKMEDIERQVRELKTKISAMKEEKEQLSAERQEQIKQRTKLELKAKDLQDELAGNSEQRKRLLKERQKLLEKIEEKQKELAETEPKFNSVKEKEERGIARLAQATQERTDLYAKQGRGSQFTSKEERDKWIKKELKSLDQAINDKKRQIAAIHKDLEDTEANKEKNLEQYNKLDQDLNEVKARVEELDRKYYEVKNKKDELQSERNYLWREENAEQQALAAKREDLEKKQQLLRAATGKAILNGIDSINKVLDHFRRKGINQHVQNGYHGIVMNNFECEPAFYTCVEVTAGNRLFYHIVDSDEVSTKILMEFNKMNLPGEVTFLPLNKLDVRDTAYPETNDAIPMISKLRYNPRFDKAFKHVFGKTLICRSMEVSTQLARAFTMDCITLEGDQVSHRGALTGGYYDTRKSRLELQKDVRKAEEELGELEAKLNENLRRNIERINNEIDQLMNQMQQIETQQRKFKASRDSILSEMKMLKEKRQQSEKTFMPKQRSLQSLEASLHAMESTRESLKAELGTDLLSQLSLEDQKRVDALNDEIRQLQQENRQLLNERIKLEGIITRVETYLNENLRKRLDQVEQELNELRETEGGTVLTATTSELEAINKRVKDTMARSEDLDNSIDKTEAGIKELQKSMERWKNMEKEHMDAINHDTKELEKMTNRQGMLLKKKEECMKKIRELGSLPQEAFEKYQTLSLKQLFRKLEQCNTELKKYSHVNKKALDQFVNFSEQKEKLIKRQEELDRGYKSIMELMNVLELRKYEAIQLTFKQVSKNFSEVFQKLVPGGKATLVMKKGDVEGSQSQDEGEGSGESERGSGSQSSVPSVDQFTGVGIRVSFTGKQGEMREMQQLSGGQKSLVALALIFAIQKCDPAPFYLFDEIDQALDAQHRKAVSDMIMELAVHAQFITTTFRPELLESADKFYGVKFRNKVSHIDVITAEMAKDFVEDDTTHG

What was measured:
13MYC-Smc3 = 13MYC-Smc3 (UniProt Q9UQE7); experiment: proximity ligation
[1] = molecular target: T1, Scc3-K1057C (yeast (budding yeast, Saccharomyces cerevisiae)) (UniProt P40541); experiment: cross-linking
T1 sequence: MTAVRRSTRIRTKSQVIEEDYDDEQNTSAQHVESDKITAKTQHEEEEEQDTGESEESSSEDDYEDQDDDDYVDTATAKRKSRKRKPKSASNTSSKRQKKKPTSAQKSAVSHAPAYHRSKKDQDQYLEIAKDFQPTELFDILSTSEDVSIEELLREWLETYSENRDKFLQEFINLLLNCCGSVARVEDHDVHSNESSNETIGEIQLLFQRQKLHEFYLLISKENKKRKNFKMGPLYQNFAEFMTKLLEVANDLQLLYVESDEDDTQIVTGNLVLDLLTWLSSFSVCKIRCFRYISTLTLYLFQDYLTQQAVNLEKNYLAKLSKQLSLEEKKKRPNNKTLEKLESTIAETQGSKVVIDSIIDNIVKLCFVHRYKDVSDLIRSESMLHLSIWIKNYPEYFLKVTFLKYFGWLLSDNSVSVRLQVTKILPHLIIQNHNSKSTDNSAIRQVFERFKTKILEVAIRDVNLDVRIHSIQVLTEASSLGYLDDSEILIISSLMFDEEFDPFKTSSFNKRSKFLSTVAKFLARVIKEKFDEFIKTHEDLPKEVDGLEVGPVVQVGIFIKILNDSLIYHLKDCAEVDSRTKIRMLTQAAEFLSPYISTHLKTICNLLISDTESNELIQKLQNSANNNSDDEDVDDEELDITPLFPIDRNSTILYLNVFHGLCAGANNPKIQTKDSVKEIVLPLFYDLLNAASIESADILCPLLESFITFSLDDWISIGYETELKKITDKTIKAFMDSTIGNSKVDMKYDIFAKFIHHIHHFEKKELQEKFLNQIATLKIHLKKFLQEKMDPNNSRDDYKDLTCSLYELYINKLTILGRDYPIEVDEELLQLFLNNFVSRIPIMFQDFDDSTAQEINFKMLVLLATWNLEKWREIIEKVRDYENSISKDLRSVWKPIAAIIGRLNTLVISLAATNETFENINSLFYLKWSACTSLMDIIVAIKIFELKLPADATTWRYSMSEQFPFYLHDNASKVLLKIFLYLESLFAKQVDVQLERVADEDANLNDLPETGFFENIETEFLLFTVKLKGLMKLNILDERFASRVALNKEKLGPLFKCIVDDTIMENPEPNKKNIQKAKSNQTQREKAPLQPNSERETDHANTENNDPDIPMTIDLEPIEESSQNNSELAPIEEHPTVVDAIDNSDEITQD

[2] = molecular target: T2, GFP-Scc3 (yeast (budding yeast, Saccharomyces cerevisiae)), P40541; experiment: co-IP; conditions: remark: other sources report otherwise
T2 chain: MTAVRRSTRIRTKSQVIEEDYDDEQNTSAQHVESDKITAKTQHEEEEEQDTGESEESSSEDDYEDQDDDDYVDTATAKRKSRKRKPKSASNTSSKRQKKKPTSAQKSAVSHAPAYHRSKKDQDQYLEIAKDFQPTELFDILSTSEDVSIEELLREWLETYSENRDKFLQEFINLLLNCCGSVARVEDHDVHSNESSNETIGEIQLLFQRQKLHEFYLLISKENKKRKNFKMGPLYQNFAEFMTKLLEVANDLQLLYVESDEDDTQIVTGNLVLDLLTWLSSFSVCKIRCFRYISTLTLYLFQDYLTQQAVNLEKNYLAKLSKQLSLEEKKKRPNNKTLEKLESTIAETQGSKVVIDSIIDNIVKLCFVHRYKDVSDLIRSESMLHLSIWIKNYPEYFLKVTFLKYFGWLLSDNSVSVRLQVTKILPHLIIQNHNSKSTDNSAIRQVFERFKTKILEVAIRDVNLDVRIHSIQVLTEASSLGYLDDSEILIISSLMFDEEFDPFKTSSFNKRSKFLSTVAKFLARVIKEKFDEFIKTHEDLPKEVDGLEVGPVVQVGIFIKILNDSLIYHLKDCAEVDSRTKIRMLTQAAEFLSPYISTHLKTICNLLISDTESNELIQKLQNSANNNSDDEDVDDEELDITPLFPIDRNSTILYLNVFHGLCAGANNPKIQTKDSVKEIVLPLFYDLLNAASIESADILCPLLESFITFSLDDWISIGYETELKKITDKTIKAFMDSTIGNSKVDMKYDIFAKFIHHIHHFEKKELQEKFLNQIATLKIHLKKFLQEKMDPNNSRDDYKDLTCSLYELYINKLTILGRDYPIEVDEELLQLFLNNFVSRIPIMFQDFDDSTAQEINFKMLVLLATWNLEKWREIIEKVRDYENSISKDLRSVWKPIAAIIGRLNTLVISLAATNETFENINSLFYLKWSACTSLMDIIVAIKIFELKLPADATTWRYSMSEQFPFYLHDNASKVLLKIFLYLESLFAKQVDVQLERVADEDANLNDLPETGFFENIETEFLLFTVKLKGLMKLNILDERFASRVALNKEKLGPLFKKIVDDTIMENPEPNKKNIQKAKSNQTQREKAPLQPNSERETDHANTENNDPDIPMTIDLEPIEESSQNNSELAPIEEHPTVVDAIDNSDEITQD

[3] = molecular target: T2, GFP-Scc3 (yeast (budding yeast, …)); experiment: co-IP; conditions: remark: other sources report otherwise

- binding (13MYC-Smc3): binds
Molecule: 5FLAG-Smc3 (from UniProt Q9UQE7 1-1217)

- binding [1]: binds
B1: Scc3-K99C (protein, UniProt P40541 1-1150)
chain: MTAVRRSTRIRTKSQVIEEDYDDEQNTSAQHVESDKITAKTQHEEEEEQDTGESEESSSEDDYEDQDDDDYVDTATAKRKSRKRKPKSASNTSSKRQKCKPTSAQKSAVSHAPAYHRSKKDQDQYLEIAKDFQPTELFDILSTSEDVSIEELLREWLETYSENRDKFLQEFINLLLNCCGSVARVEDHDVHSNESSNETIGEIQLLFQRQKLHEFYLLISKENKKRKNFKMGPLYQNFAEFMTKLLEVANDLQLLYVESDEDDTQIVTGNLVLDLLTWLSSFSVCKIRCFRYISTLTLYLFQDYLTQQAVNLEKNYLAKLSKQLSLEEKKKRPNNKTLEKLESTIAETQGSKVVIDSIIDNIVKLCFVHRYKDVSDLIRSESMLHLSIWIKNYPEYFLKVTFLKYFGWLLSDNSVSVRLQVTKILPHLIIQNHNSKSTDNSAIRQVFERFKTKILEVAIRDVNLDVRIHSIQVLTEASSLGYLDDSEILIISSLMFDEEFDPFKTSSFNKRSKFLSTVAKFLARVIKEKFDEFIKTHEDLPKEVDGLEVGPVVQVGIFIKILNDSLIYHLKDCAEVDSRTKIRMLTQAAEFLSPYISTHLKTICNLLISDTESNELIQKLQNSANNNSDDEDVDDEELDITPLFPIDRNSTILYLNVFHGLCAGANNPKIQTKDSVKEIVLPLFYDLLNAASIESADILCPLLESFITFSLDDWISIGYETELKKITDKTIKAFMDSTIGNSKVDMKYDIFAKFIHHIHHFEKKELQEKFLNQIATLKIHLKKFLQEKMDPNNSRDDYKDLTCSLYELYINKLTILGRDYPIEVDEELLQLFLNNFVSRIPIMFQDFDDSTAQEINFKMLVLLATWNLEKWREIIEKVRDYENSISKDLRSVWKPIAAIIGRLNTLVISLAATNETFENINSLFYLKWSACTSLMDIIVAIKIFELKLPADATTWRYSMSEQFPFYLHDNASKVLLKIFLYLESLFAKQVDVQLERVADEDANLNDLPETGFFENIETEFLLFTVKLKGLMKLNILDERFASRVALNKEKLGPLFKKIVDDTIMENPEPNKKNIQKAKSNQTQREKAPLQPNSERETDHANTENNDPDIPMTIDLEPIEESSQNNSELAPIEEHPTVVDAIDNSDEITQD

- binding [2]: binds
- binding [3]: binds
B2: 5FLAG-Scc3, P40541 1-1150 (protein)
chain: MTAVRRSTRIRTKSQVIEEDYDDEQNTSAQHVESDKITAKTQHEEEEEQDTGESEESSSEDDYEDQDDDDYVDTATAKRKSRKRKPKSASNTSSKRQKKKPTSAQKSAVSHAPAYHRSKKDQDQYLEIAKDFQPTELFDILSTSEDVSIEELLREWLETYSENRDKFLQEFINLLLNCCGSVARVEDHDVHSNESSNETIGEIQLLFQRQKLHEFYLLISKENKKRKNFKMGPLYQNFAEFMTKLLEVANDLQLLYVESDEDDTQIVTGNLVLDLLTWLSSFSVCKIRCFRYISTLTLYLFQDYLTQQAVNLEKNYLAKLSKQLSLEEKKKRPNNKTLEKLESTIAETQGSKVVIDSIIDNIVKLCFVHRYKDVSDLIRSESMLHLSIWIKNYPEYFLKVTFLKYFGWLLSDNSVSVRLQVTKILPHLIIQNHNSKSTDNSAIRQVFERFKTKILEVAIRDVNLDVRIHSIQVLTEASSLGYLDDSEILIISSLMFDEEFDPFKTSSFNKRSKFLSTVAKFLARVIKEKFDEFIKTHEDLPKEVDGLEVGPVVQVGIFIKILNDSLIYHLKDCAEVDSRTKIRMLTQAAEFLSPYISTHLKTICNLLISDTESNELIQKLQNSANNNSDDEDVDDEELDITPLFPIDRNSTILYLNVFHGLCAGANNPKIQTKDSVKEIVLPLFYDLLNAASIESADILCPLLESFITFSLDDWISIGYETELKKITDKTIKAFMDSTIGNSKVDMKYDIFAKFIHHIHHFEKKELQEKFLNQIATLKIHLKKFLQEKMDPNNSRDDYKDLTCSLYELYINKLTILGRDYPIEVDEELLQLFLNNFVSRIPIMFQDFDDSTAQEINFKMLVLLATWNLEKWREIIEKVRDYENSISKDLRSVWKPIAAIIGRLNTLVISLAATNETFENINSLFYLKWSACTSLMDIIVAIKIFELKLPADATTWRYSMSEQFPFYLHDNASKVLLKIFLYLESLFAKQVDVQLERVADEDANLNDLPETGFFENIETEFLLFTVKLKGLMKLNILDERFASRVALNKEKLGPLFKKIVDDTIMENPEPNKKNIQKAKSNQTQREKAPLQPNSERETDHANTENNDPDIPMTIDLEPIEESSQNNSELAPIEEHPTVVDAIDNSDEITQD
